Measured values published in article PMC10598138.
No constants are given. Whether binding was seen depends on the method and setting. In cells and extracts the contact can be indirect. Some results given as binding are weak or reduced against the parent protein; the word gives no strength.

Protein sequences, listed by entry. Tags and fused reporters are not part of them.
UniProt P04350: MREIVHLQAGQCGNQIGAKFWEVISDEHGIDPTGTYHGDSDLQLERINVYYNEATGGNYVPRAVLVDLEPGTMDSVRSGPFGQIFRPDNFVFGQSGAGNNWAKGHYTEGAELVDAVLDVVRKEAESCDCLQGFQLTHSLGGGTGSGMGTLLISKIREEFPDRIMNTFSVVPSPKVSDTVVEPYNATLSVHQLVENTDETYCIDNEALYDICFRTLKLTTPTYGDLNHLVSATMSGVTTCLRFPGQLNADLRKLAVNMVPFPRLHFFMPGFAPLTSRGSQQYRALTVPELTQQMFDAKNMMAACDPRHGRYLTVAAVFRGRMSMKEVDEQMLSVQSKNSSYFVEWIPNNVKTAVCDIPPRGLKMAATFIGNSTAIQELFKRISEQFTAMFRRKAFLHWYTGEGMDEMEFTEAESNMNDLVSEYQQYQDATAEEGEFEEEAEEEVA
UniProt Q3ZCM7: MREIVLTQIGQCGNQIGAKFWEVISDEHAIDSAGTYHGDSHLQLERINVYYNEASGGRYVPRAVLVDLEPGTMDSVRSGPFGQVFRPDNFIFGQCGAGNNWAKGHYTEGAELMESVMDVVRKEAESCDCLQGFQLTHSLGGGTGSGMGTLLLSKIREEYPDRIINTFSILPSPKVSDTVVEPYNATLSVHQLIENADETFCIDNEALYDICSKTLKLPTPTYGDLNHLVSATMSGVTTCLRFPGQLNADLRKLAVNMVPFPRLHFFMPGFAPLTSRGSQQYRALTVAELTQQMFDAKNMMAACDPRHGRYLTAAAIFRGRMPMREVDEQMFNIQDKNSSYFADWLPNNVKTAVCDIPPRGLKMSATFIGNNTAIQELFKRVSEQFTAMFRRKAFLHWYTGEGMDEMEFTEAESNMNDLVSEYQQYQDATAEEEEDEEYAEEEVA
UniProt P52732: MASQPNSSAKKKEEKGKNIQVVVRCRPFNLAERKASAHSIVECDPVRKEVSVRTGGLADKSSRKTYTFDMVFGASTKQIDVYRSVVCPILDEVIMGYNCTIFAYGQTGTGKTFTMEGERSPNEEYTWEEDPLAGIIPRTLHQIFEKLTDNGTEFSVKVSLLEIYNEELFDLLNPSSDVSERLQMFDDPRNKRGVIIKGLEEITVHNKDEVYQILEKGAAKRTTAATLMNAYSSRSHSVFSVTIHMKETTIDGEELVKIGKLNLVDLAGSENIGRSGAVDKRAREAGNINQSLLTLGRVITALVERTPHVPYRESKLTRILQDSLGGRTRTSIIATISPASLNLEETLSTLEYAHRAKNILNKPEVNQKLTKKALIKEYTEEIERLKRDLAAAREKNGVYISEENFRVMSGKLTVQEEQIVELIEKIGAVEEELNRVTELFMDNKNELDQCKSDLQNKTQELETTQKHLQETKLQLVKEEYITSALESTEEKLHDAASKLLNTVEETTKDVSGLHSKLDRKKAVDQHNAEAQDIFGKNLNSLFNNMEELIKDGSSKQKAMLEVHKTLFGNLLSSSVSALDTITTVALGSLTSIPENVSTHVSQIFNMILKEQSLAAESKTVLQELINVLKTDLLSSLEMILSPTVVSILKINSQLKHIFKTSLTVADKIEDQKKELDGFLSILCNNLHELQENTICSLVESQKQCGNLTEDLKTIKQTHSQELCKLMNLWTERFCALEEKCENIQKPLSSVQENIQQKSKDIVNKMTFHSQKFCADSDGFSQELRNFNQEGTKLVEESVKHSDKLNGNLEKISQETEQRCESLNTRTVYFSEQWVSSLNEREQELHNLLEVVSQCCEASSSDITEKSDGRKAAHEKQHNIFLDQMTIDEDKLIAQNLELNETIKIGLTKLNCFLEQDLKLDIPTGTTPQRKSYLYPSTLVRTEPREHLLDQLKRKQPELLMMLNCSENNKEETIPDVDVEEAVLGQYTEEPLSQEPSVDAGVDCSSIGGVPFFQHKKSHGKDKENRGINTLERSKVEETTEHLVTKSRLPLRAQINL

Columns and labels:
[1] = target: 5'FLAG-TUBB4A (human beta-tubulin isotype TUBB4A) (human) (UniProt P04350); test: co-IP; HEK293T cells co-transfected with 5'HA-KIF11 and 5'FLAG-TUBB8 or 5'FLAG-TUBB4A; NP-40 lysis buffer (0.5% NP-40, 50 mM Tris, 150 mM NaCl, pH 7.5); lysate incubated with FLAG-IgG agarose beads 3 h at 4 °C; HA-KIF11 detected by western blot
[2] = target: 5'FLAG-TUBB8 (human beta-tubulin isotype TUBB8) (human) (UniProt Q3ZCM7); test: as above

binding [1]: binds | binding [2]: binds
Substance: 5'HA-KIF11 (human kinesin family member 11) (from UniProt P52732 1-1056)
